Measurements as given in the supplement of paper PMC10849652.
The list shows a part of the results.

Protein sequences, listed by entry. Tags and fused reporters are not part of them. Lines headed by an entry give the natural chain unless they say otherwise; changes in a name come on top.
UniProt P08575: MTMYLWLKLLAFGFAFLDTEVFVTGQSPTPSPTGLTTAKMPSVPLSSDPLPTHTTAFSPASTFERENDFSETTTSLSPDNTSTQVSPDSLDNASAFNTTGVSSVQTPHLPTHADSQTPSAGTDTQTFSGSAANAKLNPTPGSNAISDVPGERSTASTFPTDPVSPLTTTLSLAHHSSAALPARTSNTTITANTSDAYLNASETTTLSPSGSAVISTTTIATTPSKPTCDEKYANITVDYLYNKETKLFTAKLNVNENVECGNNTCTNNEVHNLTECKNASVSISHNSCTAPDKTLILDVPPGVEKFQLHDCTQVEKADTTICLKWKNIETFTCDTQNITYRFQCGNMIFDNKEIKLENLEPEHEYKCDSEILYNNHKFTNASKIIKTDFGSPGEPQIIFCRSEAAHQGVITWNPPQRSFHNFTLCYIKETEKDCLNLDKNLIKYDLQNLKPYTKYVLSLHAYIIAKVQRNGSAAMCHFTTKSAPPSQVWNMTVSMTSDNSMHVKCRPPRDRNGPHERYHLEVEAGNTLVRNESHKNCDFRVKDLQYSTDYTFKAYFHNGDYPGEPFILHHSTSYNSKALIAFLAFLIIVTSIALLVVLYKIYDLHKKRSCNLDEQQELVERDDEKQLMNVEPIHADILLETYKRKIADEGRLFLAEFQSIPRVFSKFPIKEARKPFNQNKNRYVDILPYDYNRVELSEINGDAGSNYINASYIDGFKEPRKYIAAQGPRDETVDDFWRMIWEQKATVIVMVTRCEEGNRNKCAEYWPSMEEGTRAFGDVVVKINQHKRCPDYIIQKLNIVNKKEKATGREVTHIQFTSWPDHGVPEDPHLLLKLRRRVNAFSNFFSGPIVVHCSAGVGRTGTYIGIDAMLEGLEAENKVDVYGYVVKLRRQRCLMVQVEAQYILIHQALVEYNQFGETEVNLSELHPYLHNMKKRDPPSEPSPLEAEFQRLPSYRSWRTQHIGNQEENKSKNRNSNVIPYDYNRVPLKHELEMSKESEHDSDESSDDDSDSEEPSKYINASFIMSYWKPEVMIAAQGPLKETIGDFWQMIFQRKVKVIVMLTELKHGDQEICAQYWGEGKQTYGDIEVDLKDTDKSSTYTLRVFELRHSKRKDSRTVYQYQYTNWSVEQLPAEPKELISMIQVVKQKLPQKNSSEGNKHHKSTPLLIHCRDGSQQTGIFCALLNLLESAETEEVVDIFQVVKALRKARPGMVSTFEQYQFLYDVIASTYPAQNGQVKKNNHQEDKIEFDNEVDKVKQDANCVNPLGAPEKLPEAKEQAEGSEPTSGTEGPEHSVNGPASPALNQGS
UniProt Q5THK1: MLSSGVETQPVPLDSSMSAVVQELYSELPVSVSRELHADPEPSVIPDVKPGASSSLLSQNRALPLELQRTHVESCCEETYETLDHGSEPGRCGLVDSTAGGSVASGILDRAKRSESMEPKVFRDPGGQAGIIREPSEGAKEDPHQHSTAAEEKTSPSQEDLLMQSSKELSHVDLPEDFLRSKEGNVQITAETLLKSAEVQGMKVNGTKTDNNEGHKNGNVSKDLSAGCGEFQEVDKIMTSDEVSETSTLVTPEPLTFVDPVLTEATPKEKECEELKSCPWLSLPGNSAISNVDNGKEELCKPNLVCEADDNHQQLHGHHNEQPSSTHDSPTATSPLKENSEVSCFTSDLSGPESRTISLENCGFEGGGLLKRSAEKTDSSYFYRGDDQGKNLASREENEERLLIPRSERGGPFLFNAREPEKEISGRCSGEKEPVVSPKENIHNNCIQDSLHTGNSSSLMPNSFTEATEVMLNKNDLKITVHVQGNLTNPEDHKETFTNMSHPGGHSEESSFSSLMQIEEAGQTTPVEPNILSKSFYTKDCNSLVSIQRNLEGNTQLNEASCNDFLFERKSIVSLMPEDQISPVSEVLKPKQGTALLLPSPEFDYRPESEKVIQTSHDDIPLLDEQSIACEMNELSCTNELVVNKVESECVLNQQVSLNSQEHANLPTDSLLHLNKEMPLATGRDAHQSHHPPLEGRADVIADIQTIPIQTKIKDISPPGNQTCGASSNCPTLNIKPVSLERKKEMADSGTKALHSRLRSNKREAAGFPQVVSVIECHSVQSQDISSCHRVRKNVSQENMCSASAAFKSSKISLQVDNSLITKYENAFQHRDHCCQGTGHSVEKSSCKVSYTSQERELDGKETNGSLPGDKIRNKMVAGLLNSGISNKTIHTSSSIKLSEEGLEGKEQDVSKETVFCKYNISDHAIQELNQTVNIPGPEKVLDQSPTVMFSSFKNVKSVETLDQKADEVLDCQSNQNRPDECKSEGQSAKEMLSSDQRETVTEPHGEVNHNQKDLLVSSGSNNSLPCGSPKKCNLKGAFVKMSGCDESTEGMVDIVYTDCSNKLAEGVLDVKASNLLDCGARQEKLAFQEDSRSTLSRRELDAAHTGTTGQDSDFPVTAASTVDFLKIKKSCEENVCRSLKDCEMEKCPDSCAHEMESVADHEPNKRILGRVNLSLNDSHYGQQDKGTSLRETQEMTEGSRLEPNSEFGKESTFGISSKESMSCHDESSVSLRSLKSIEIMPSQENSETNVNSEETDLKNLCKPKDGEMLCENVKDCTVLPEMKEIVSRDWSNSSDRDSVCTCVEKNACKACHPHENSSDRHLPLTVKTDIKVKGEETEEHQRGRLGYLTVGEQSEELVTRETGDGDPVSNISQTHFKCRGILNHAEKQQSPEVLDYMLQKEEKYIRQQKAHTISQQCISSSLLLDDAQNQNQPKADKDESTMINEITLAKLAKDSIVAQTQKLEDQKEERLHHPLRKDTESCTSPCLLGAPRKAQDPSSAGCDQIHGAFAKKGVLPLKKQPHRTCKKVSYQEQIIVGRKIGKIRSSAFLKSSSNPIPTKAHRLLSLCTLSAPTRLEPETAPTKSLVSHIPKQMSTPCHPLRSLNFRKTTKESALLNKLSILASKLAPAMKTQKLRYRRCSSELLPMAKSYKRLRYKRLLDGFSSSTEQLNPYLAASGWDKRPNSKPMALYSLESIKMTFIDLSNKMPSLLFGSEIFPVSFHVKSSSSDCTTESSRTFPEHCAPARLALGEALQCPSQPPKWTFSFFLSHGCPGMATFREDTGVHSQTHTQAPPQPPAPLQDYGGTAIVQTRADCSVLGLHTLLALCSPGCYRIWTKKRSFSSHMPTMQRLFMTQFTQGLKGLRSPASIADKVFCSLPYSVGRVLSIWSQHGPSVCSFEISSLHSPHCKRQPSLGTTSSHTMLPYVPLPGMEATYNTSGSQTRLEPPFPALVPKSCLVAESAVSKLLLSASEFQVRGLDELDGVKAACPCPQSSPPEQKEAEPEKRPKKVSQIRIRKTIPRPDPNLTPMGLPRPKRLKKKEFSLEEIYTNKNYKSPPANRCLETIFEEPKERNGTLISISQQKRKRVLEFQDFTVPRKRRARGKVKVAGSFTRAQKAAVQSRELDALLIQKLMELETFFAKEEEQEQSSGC
UniProt P20962: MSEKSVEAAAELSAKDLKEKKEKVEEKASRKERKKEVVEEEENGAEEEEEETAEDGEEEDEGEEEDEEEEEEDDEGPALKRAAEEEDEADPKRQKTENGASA
UniProt Q86YD1: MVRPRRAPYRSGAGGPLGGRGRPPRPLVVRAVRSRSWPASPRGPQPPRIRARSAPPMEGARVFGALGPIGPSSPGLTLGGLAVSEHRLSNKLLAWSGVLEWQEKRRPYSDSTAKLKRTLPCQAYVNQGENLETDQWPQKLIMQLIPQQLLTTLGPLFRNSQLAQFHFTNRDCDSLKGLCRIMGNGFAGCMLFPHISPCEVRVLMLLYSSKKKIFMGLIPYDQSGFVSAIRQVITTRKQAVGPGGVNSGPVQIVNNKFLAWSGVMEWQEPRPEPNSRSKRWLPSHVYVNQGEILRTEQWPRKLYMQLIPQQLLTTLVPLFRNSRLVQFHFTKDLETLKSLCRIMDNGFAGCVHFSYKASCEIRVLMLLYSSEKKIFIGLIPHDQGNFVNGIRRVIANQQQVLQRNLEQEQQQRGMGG
UniProt Q16378: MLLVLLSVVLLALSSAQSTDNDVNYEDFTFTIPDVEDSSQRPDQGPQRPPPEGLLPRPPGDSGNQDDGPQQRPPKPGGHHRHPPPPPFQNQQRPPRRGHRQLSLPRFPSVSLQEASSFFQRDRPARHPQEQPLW
UniProt P28062: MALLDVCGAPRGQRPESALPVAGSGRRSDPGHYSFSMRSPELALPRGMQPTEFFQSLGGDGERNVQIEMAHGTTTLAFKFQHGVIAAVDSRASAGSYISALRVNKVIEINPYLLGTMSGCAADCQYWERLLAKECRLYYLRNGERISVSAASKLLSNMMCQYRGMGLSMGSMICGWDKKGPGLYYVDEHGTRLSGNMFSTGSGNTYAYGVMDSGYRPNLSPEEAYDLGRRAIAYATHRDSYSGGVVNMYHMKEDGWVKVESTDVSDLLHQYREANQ
UniProt P40306: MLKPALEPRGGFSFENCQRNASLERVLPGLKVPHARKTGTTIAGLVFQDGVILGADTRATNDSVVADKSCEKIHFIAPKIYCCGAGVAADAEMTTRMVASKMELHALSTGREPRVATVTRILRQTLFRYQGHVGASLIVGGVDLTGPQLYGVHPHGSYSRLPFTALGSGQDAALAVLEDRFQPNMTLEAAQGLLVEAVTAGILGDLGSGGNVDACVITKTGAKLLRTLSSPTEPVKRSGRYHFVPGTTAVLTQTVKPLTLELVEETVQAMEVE
UniProt A2A3K4: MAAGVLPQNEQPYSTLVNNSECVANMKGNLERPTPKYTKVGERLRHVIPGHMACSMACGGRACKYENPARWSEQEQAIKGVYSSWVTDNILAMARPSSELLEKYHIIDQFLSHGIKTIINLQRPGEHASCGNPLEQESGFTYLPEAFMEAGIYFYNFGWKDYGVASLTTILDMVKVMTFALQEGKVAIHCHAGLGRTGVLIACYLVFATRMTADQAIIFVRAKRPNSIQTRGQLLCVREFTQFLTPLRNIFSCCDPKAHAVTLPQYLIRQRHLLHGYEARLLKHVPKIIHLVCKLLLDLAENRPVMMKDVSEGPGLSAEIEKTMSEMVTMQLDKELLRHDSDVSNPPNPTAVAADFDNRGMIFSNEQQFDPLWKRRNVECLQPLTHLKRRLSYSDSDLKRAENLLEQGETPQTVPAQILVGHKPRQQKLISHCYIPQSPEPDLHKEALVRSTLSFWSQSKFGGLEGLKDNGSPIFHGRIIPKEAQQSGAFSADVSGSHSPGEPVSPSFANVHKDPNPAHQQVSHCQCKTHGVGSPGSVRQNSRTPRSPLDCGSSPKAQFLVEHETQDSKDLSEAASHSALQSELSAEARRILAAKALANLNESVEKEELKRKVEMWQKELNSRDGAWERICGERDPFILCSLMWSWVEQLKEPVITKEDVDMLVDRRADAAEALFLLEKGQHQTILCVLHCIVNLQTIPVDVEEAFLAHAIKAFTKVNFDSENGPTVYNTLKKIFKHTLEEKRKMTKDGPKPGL
UniProt Q15678: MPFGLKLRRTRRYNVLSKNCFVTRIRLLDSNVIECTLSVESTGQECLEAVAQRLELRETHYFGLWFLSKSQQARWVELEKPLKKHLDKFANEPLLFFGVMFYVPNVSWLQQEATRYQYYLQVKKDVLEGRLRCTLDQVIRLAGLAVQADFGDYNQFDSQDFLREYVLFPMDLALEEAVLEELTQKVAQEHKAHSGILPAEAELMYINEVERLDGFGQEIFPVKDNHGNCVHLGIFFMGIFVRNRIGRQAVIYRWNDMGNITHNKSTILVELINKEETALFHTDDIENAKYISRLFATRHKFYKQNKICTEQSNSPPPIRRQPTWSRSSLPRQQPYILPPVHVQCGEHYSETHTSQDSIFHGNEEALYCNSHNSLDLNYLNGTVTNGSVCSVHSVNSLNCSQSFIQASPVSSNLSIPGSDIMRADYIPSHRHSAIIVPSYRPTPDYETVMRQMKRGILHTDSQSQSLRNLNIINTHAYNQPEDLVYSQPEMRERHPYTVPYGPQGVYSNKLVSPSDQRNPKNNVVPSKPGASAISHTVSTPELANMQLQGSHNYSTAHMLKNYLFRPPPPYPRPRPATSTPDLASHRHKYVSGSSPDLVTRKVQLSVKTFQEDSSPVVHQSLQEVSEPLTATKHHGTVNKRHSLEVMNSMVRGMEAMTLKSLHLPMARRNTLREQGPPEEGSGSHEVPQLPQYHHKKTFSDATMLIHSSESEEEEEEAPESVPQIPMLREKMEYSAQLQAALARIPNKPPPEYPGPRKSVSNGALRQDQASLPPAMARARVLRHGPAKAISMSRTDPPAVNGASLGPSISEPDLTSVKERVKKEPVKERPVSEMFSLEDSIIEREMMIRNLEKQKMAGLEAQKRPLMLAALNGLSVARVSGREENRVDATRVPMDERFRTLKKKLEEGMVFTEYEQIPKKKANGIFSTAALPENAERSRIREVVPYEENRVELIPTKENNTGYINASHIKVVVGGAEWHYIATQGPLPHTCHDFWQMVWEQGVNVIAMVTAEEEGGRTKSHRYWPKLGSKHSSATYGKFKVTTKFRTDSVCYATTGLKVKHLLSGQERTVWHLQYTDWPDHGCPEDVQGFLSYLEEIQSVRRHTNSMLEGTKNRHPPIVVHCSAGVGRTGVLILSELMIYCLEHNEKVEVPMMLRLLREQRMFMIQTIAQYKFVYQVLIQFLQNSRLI

What was measured:
Experiment in all cases: log2 fold change, soluble protein after heating vs DMSO (PISA); higher = thermal stabilisation; K562 lysate, 10 uM; active = over 0.2 and 3.5 SD of the protein, either way, in both replicates (recomputed)
nilotinib = compound: Cc1cn(-c2cc(NC(=O)c3ccc(C)c(Nc4nccc(-c5cccnc5)n4)c3)cc(C(F)(F)F)c2)cn1 [nilotinib]
How it was run: (§1)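 Dounce homogenisation of K562 pellets in PBS pH 7.4 with 1 mM MgCl2 produced a crude extract, used at 1 mg/mL protein. Exposure to 10 μM compound lasted 30 min, and aliquots were then heated for 3 min across 48°C-58°C, pooled and brought to 0.5% NP-40 at 4°C. The supernatant after 21,000xg for 90 min was quantified by TMTpro 16plex LC-MS/MS with channel sums equalised. Duplicate values are given as log-two fold change in thermal stability relative to solvent controls.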

[1] = compound: Cc1nc(Nc2n[nH]c3c2CN(C(=O)N[C@H](CN(C)C)c2ccccc2)C3(C)C)c2sccc2n1
How it was run: as §1

dasatinib = compound: Cc1nc(Nc2ncc(C(=O)Nc3c(C)cccc3Cl)s2)cc(N2CCN(CCO)CC2)n1 [dasatinib]
How it was run: as §1

[2] = compound: Cc1ncc(-c2ccnc(Nc3ccc(S(C)(=O)=O)cc3)n2)n1C(C)C
How it was run: as §1

[3] = compound: Cn1cc(-c2ccc3c(c2)CCN3C(=O)Cc2cccc(C(F)(F)F)c2)c2c(N)ncnc21
How it was run: as §1

quisinostat = compound: Cn1cc(CNCC2CCN(c3ncc(C(=O)NO)cn3)CC2)c2ccccc21 [quisinostat]
How it was run: as §1

tipifarnib = compound: Cn1cncc1[C@@](N)(c1ccc(Cl)cc1)c1ccc2c(c1)c(-c1cccc(Cl)c1)cc(=O)n2C [tipifarnib]
How it was run: as §1

[4] = compound: NC(=O)Nc1cc(-c2cccc(F)c2)sc1C(=O)N[C@H]1CCCNC1
How it was run: as §1

[5] = compound: NC(=O)c1cnc(N[C@@H]2CCCC[C@@H]2N)nc1Nc1cccc(-n2nccn2)c1
How it was run: as §1

[6] = compound: NC1(c2ccc(-c3nc4ccn5c(=O)[nH]nc5c4cc3-c3ccccc3)cc2)CCC1
How it was run: as §1

Measured: log2 fold change

PSMG3 (UniProt Q9BT73)
inactive: nilotinib -0.004 | [1] -0.011 | dasatinib 0.074 | [2] -0.008 | [3] 0 | quisinostat 0.006 | tipifarnib 0.005 | [4] 0.017 | [5] 0.025 | [6] -0.022

PTPRC (UniProt P08575)
inactive: nilotinib -0.026 | [1] -0.024 | dasatinib 0.014 | [2] -0.013 | [3] 0.027 | quisinostat -0.039 | tipifarnib 0.002 | [4] -0.002 | [5] 0.001 | [6] 0

PTTG1 (UniProt O95997)
inactive: nilotinib 0.073 | [1] 0.05 | dasatinib -0.017 | [2] -0.017 | [3] 0.009 | quisinostat -0.074 | tipifarnib 0.019 | [4] 0.019 | [5] 0.025 | [6] -0.032

PRPSAP2 (UniProt O60256)
inactive: nilotinib 0.045 | [1] 0 | dasatinib -0.006 | [2] 0.028 | [3] 0.027 | quisinostat 0.066 | tipifarnib 0.014 | [4] -0.008 | [5] -0.014 | [6] 0.063

PSPC1 (UniProt Q8WXF1)
inactive: nilotinib -0.004 | [1] -0.009 | dasatinib 0.066 | [2] 0.01 | [3] -0.007 | quisinostat 0.035 | tipifarnib 0.011 | [4] 0.012 | [5] -0.002 | [6] 0.01

PURA (UniProt Q00577)
inactive: nilotinib -0.056 | [1] 0.032 | dasatinib 0.028 | [2] -0.046 | [3] 0.062 | quisinostat 0.008 | tipifarnib -0.027 | [4] -0.033 | [5] 0.01 | [6] -0.04

PTDSS1 (UniProt P48651)
inactive: nilotinib -0.038 | [1] 0.012 | dasatinib -0.078 | [2] 0.049 | [3] -0.051 | quisinostat -0.09 | tipifarnib 0.096 | [4] 0.12 | [5] 0.047 | [6] -0.092

PTPN11 isoform 1 (UniProt Q06124)
inactive: nilotinib -0.052 | [1] 0.012 | dasatinib 0.026 | [2] -0.008 | [3] 0.02 | quisinostat 0.045 | tipifarnib 0.024 | [4] -0.021 | [5] 0.004 | [6] 0.017

PUS1 (UniProt Q9Y606)
inactive: nilotinib 0.005 | [1] -0.042 | dasatinib -0.01 | [2] 0.01 | [3] 0.018 | quisinostat -0.058 | tipifarnib 0.018 | [4] 0.043 | [5] 0.036 | [6] -0.023

PRR14L (UniProt Q5THK1)
inactive: nilotinib 0.05 | [1] -0.008 | dasatinib 0.028 | [2] 0.011 | [3] -0.006 | quisinostat -0.013 | tipifarnib 0.075 | [4] 0.018 | [6] -0.155

PTMS (UniProt P20962)
inactive: nilotinib -0.023 | [1] 0.002 | dasatinib 0.005 | [2] 0.02 | [3] 0.02 | quisinostat -0.049 | tipifarnib 0 | [4] 0.025 | [5] 0.033 | [6] -0.019

PTGFRN (UniProt Q9P2B2)
inactive: nilotinib 0.012 | [1] -0.005 | dasatinib 0.016 | [2] 0.001 | [3] -0.036 | quisinostat -0.033 | tipifarnib 0.014 | [4] -0.001 | [5] -0.01 | [6] 0.001

PUS7 isoform 2 (UniProt Q96PZ0)
inactive: nilotinib 0 | [1] -0.009 | dasatinib -0.004 | [2] -0.002 | [3] -0.012 | quisinostat -0.008 | tipifarnib 0.016 | [4] -0.003 | [5] -0.027 | [6] -0.007

PTPN12 (UniProt Q05209)
inactive: nilotinib -0.034 | [1] 0.028 | dasatinib -0.04 | [2] -0.02 | [3] 0.01 | quisinostat -0.018 | tipifarnib -0.017 | [4] 0.006 | [5] 0.007 | [6] 0.007

PTPN11, A0A0U1RRI0
inactive: [5] -0.081

PRRC2B (UniProt H0Y412)
inactive: [6] 0.156

PTOV1 (UniProt Q86YD1)
inactive: dasatinib -0.273 | [3] 0.124 | quisinostat 0.009 | [4] 0.143

PRR4 (UniProt Q16378)
inactive: nilotinib 0.047 | [1] -0.145 | [2] -0.027 | tipifarnib 0.05 | [5] 0.032 | [6] 0.012

PSMA7 (UniProt H0Y586)
inactive: nilotinib 0.059 | [1] 0.087 | [2] 0.064 | quisinostat -0.011 | tipifarnib -0.11 | [4] 0.069 | [5] -0.044 | [6] -0.426

PSMB2, A0A087WVV1
inactive: quisinostat -0.144 | [4] -0.271 | [6] -0.063

PWWP2B (UniProt Q6NUJ5)
inactive: dasatinib 0.194 | [3] 0.041 | [5] 0.025

PRSS21 (UniProt Q9Y6M0)
inactive: dasatinib -0.016 | [3] -0.011 | quisinostat -0.021 | [4] 0 | [5] 0.041 | [6] -0.041

PSMF1 (UniProt Q5QPM7)
inactive: quisinostat -0.046 | [4] 0.027

PSTK (UniProt H7BYY4)
inactive: dasatinib -0.065 | [3] 0.248

PSMC5 (UniProt J3KRP2)
inactive: nilotinib -0.1 | [1] 0.104 | [2] 0.148 | tipifarnib 0.039 | [5] -0.078

PSME3 (UniProt K7EMD0)
inactive: nilotinib -0.074 | [1] 0.114 | [2] 0.012 | tipifarnib 0.043 | [5] -0.054

PSMA3 (UniProt H0YJ03)
inactive: dasatinib -0.077 | [3] -0.104 | quisinostat -0.189 | [4] 0.082 | [5] 0.01 | [6] 0.06

PSMB8 (UniProt P28062)
inactive: dasatinib -0.014 | [3] 0.085 | quisinostat -0.119 | [4] 0.079 | [5] -0.029 | [6] 0.053

PTPA (UniProt Q5T948)
inactive: [5] -0.051

PRSS50 (UniProt Q9UI38)
inactive: dasatinib 0.102 | [3] -0.029 | [5] 0.038

PTRH1 (UniProt Q86Y79)
inactive: quisinostat 0.015 | [4] -0.018 | [6] 0.176

PSIP1 (UniProt V9GYT7)
inactive: quisinostat -0.165 | [4] -0.039 | [6] 0.003

PSMB10 (UniProt P40306)
inactive: dasatinib 0.017 | [3] 0.055 | quisinostat -0.033 | [4] -0.008 | [5] -0.038

PSAP isoform 2 (UniProt P07602)
inactive: [6] -0.146

PTP4A3 (UniProt O75365)
inactive: dasatinib -0.078 | [3] -0.037 | quisinostat 0.22 | [4] 0.128 | [5] 0.057 | [6] 0.026

PTBP1, A0A0U1RRM4
inactive: [5] -0.225

PTPRF (UniProt P10586)
inactive: quisinostat 0.156 | [4] -0.2

Ten successive entries from above, for reference:
PSMA3 (UniProt H0YJ03)
inactive: dasatinib -0.077 | [3] -0.104 | quisinostat -0.189 | [4] 0.082 | [5] 0.01 | [6] 0.06

PSMB8 (UniProt P28062)
inactive: dasatinib -0.014 | [3] 0.085 | quisinostat -0.119 | [4] 0.079 | [5] -0.029 | [6] 0.053

PTPA (UniProt Q5T948)
inactive: [5] -0.051

PRSS50 (UniProt Q9UI38)
inactive: dasatinib 0.102 | [3] -0.029 | [5] 0.038

PTRH1 (UniProt Q86Y79)
inactive: quisinostat 0.015 | [4] -0.018 | [6] 0.176

PSIP1 (UniProt V9GYT7)
inactive: quisinostat -0.165 | [4] -0.039 | [6] 0.003

PSMB10 (UniProt P40306)
inactive: dasatinib 0.017 | [3] 0.055 | quisinostat -0.033 | [4] -0.008 | [5] -0.038

PSAP isoform 2 (UniProt P07602)
inactive: [6] -0.146

PTP4A3 (UniProt O75365)
inactive: dasatinib -0.078 | [3] -0.037 | quisinostat 0.22 | [4] 0.128 | [5] 0.057 | [6] 0.026

PTBP1, A0A0U1RRM4
inactive: [5] -0.225

Next entries follow.

PSMD4 (UniProt Q5VWC4)
inactive: nilotinib -0.069 | [1] -0.052 | [2] 0.059 | quisinostat -0.124 | tipifarnib -0.015 | [4] 0.03 | [6] -0.141

PTPDC1 isoform 2 (UniProt A2A3K4)
inactive: nilotinib -0.422 | [1] 0.246 | [2] -0.305 | quisinostat -0.019 | tipifarnib -0.206 | [4] -0.051 | [6] -0.059

PTPA (UniProt Q5T949)
inactive: nilotinib -0.098 | [1] 0.023 | [2] 0.005 | tipifarnib -0.173 | [5] 0.017

PRR12 (UniProt Q9ULL5)
inactive: quisinostat -0.176 | [4] 0.056

PSMD1, A0A087WW66
inactive: [5] -0.023

PTPN14 (UniProt Q15678)
inactive: quisinostat -0.263 | [4] -0.001

PRSS8 (UniProt Q16651)
inactive: dasatinib 0.058 | [3] 0.035 | quisinostat -0.205 | [4] 0.06 | [6] 0.071
